From paper PMC11847538
No constants are given. Whether binding was seen depends on the method and setting. Binding seen in cells or lysates may run through a third protein. Some results given as binding are weak or reduced against the parent protein; the word gives no strength. Tags and fused reporters may be left off the sequences shown.

Target: T1, Flag-tagged Miy1 (S. cerevisiae) (UniProt Q08930)
T1 sequence: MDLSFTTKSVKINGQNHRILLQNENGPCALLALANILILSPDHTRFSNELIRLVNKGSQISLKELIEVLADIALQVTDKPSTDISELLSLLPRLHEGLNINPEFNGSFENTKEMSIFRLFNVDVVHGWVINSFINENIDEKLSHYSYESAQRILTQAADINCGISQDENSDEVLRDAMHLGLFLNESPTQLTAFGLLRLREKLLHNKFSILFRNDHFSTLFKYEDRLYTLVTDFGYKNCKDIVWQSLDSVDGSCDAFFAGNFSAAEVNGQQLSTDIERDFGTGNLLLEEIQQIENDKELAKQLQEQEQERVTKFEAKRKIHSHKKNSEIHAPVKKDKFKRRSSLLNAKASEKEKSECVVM
Assay: co-IP; lysate of yeast cells cotransformed with pAD4M-Gpa1 and pYES-FLAG-Miy1 or empty vector; anti-FLAG M2 affinity resin, 2 h, 4 °C; lysis buffer 50 mM NaPO4 pH 7.5, 400 mM NaCl, 0.1% Triton X-100, 10% glycerol; immunoblot with anti-Gpa1

binding: binds
B1: Gpa1 (protein, UniProt P08539 1-472)
chain: MGCTVSTQTIGDESDPFLQNKRANDVIEQSLQLEKQRDKNEIKLLLLGAGESGKSTVLKQLKLLHQGGFSHQERLQYAQVIWADAIQSMKILIIQARKLGIQLDCDDPINNKDLFACKRILLKAKALDYINASVAGGSDFLNDYVLKYSERYETRRRVQSTGRAKAAFDEDGNISNVKSDTDRDAETVTQNEDADRNNSSRINLQDICKDLNQEGDDQMFVRKTSREIQGQNRRNLIHEDIAKAIKQLWNNDKGIKQCFARSNEFQLEGSAAYYFDNIEKFASPNYVCTDEDILKGRIKTTGITETEFNIGSSKFKVLDAGGQRSERKKWIHCFEGITAVLFVLAMSEYDQMLFEDERVNRMHESIMLFDTLLNSKWFKDTPFILFLNKIDLFEEKVKSMPIRKYFPDYQGRVGDAEAGLKYFEKIFLSLNKTNKPIYVKRTCATDTQTMKFVLSAVTDLIIQQNLKKIGII
